Reference: article doi:10.1101/2025.06.20.659860
No constants are given. Whether binding was seen depends on the method and setting. In cells and extracts the contact can be indirect. For part of these data: Binding can be weak; no strength is given. Tags and fused reporters may be left off the sequences shown.

T1: V5-tagged DDOST (human) (UniProt P39656)
T1 sequence: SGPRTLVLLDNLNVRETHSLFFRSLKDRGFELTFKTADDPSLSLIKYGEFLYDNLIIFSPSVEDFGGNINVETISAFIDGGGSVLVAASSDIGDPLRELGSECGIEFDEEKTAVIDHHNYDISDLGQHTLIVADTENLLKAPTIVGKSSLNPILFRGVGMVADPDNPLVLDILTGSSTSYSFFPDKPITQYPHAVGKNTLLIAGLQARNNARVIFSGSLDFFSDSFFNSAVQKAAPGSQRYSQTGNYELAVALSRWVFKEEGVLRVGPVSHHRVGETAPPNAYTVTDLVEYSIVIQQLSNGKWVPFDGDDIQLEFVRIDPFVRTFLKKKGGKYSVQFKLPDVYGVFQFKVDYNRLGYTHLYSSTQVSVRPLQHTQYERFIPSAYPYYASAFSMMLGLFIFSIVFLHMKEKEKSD

T2: V5-tagged STT3A (human) (UniProt P46977)
T2 sequence: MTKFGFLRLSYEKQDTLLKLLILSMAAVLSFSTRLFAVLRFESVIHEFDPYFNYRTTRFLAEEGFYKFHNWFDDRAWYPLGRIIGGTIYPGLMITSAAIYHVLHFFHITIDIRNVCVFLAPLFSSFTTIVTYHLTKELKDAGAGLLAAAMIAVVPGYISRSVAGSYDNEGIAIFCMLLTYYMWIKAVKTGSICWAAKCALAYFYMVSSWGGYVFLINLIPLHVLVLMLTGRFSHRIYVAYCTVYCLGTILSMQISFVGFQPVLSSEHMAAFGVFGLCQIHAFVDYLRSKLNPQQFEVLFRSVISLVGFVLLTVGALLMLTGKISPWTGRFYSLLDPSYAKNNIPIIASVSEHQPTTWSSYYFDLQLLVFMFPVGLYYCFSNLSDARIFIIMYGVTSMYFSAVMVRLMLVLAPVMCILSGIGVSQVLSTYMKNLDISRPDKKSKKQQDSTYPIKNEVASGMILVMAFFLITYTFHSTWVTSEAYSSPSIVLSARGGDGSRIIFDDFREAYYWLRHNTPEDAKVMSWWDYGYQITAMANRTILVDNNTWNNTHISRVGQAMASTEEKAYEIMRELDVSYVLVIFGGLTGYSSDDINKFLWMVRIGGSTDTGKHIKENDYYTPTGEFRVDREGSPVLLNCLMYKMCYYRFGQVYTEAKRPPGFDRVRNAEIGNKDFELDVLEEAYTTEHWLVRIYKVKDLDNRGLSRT

T3: V5-tagged RPN1 (human) (UniProt P04843)
T3 sequence: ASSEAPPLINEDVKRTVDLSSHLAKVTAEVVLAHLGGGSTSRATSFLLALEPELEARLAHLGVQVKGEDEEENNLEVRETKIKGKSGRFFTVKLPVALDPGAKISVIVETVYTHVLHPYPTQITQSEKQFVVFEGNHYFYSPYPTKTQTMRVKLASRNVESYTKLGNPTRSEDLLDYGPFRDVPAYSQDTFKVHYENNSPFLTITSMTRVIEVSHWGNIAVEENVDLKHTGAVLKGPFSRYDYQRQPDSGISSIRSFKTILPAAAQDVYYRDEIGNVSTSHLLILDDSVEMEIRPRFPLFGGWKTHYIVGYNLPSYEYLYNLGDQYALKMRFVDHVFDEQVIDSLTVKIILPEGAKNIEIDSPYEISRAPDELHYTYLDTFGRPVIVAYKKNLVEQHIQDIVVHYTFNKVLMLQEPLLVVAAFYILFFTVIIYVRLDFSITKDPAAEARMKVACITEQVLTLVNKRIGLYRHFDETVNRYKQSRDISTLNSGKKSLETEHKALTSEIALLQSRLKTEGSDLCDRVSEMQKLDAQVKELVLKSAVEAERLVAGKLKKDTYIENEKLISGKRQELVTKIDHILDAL

T4: V5-tagged EFTUD2 (human) (UniProt Q15029)
T4 sequence: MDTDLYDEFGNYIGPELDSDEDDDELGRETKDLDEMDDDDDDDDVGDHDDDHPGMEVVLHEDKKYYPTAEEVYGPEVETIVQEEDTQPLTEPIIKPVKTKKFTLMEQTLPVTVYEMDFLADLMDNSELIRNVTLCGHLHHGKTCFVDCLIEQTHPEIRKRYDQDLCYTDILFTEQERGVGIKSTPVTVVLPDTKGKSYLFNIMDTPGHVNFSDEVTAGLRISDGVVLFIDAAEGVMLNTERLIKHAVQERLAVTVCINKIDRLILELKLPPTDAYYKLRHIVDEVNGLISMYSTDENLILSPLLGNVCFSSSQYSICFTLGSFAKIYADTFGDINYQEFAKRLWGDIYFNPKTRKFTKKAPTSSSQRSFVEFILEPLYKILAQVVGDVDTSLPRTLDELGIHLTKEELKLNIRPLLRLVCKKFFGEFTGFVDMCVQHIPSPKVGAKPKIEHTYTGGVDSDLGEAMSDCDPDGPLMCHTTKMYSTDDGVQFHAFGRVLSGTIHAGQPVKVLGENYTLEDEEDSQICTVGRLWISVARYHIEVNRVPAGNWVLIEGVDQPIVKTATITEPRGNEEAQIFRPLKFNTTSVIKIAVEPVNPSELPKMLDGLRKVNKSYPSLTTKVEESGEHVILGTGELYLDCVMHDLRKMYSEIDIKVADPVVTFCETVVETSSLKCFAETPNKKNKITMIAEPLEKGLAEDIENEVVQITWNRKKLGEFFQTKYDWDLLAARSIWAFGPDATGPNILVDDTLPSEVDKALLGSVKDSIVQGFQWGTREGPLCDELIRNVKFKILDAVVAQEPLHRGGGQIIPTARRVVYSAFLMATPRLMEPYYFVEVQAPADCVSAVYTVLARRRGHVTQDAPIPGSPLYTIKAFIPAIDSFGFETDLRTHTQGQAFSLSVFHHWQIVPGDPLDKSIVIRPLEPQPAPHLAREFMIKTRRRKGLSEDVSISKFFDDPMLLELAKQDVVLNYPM

T5: V5-tagged CPSF3 (human) (UniProt Q9UKF6)
T5 sequence: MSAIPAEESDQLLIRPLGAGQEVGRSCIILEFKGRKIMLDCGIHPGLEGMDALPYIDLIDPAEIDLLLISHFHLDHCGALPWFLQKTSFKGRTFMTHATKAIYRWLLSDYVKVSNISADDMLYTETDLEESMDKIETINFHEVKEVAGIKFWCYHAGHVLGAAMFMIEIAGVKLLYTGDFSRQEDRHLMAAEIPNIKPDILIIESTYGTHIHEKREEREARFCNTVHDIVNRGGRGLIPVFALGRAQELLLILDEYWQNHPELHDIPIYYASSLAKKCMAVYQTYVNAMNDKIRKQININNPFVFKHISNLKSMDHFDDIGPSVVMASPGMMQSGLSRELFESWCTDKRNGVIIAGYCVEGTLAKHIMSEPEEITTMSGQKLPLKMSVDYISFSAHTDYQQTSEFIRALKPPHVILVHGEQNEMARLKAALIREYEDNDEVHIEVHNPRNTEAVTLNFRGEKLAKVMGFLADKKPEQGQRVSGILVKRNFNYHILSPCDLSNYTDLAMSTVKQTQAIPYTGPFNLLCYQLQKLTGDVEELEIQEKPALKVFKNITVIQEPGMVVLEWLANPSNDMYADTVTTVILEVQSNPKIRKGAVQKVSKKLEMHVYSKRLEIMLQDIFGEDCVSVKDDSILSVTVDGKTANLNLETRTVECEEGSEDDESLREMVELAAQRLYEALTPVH

B1: V5-tagged CCT2 (protein, UniProt P78371 1-535)
chain: MASLSLAPVNIFKAGADEERAETARLTSFIGAIAIGDLVKSTLGPKGMDKILLSSGRDASLMVTNDGATILKNIGVDNPAAKVLVDMSRVQDDEVGDGTTSVTVLAAELLREAESLIAKKIHPQTIIAGWREATKAAREALLSSAVDHGSDEVKFRQDLMNIAGTTLSSKLLTHHKDHFTKLAVEAVLRLKGSGNLEAIHIIKKLGGSLADSYLDEGFLLDKKIGVNQPKRIENAKILIANTGMDTDKIKIFGSRVRVDSTAKVAEIEHAEKEKMKEKVERILKHGINCFINRQLIYNYPEQLFGAAGVMAIEHADFAGVERLALVTGGEIASTFDHPELVKLGSCKLIEEVMIGEDKLIHFSGVALGEACTIVLRGATQQILDEAERSLHDALCVLAQTVKDSRTVYGGGCSEMLMAHAVTQLANRTPGKEAVAMESYAKALRMLPTIIADNAGYDSADLVAQLRAAHSEGNTTAGLDMREGTIGDMAILGITESFQVKRQVLLSAAEAAEVILRVDNIIKAAPRKRVPDHHPC

Columns and labels:
Experiment in all cases: co-IP
[1] = biological target: T1, V5-tagged DDOST (human)
[2] = biological target: T2, V5-tagged STT3A (human)
[3] = biological target: T3, V5-tagged RPN1 (human)
[4] = biological target: T4, V5-tagged EFTUD2 (human)
[5] = biological target: T5, V5-tagged CPSF3 (human)
[6] = biological target: FLAG-tagged DENV NS1 (co-IP, 293T) (dengue virus serotype 2 (EDEN2))
[7] = biological target: FLAG-tagged DENV NS3 (co-IP, 293T) (dengue virus serotype 2 (EDEN2))
[8] = biological target: FLAG-tagged DENV NS5 (co-IP, 293T) (dengue virus serotype 2 (EDEN2))

Row | Molecule | binding [1] | binding [2] | binding [3] | binding [4] | binding [5] | also measured
1 | FLAG-tagged DENV2 NS4A (co-IP, 293T) (dengue virus serotype 2 (EDEN2)) | binds | binds | binds | – | – | –
2 | FLAG-tagged DENV2 NS4B (co-IP, 293T) (dengue virus serotype 2 (EDEN2)) | binds | binds | binds | – | – | –
3 | FLAG-tagged DENV NS1 (co-IP, 293T) (dengue virus serotype 2 (EDEN2)) | – | – | – | no binding | no binding | –
4 | FLAG-tagged DENV NS3 (co-IP, 293T) (dengue virus serotype 2 (EDEN2)) | – | – | – | binds | binds | –
5 | FLAG-tagged DENV NS5 (co-IP, 293T) (dengue virus serotype 2 (EDEN2)) | – | – | – | binds | binds | –
6 | B1 | – | – | – | – | – | binding [6]: binds; binding [7]: no binding; binding [8]: no binding
